No constants are given. Whether binding was seen depends on the method and setting. Binding seen in cells or lysates may run through a third protein. For part of these data: Binding can be weak; no strength is given. For part of these data: Where a sequence is shown, tags or fusion partners need not be part of it.
Assays:
[1] = target: USP32 with a 3×HA-tag (wild type) (human) (UniProt Q8NFA0); assay: co-IP; HA-tagged MARCHF or USP32 (WT or mutant) co-expressed with furin (WT or mutant) in HEK293T; RIPA lysate; IP with anti-HA affinity gel overnight at 4 °C; WB
[2] = target: furin ΔCD (FLAG-tagged) (human) (UniProt P09958); assay: co-IP; FLAG-tagged furin (WT or mutant) co-expressed with the tagged partner in HEK293T; RIPA lysate; IP with anti-FLAG M2 magnetic beads overnight at 4 °C; WB
[3] = target: furin ΔCT (FLAG-tagged) (human) (UniProt P09958); assay: as above
[4] = target: furin-FLAG-VC (human) (UniProt P09958); assay: split reporter; BiFC: MARCHF with a VN-tag and furin or 3K/A with a VC-tag co-expressed with TGOLN2-mCherry in HeLa cells; green signal by confocal microscopy

Amino acid sequences for entries named in this document (tags omitted). A change or cut given only in a name is not applied to a line headed by its entry.
UniProt Q8NFA0: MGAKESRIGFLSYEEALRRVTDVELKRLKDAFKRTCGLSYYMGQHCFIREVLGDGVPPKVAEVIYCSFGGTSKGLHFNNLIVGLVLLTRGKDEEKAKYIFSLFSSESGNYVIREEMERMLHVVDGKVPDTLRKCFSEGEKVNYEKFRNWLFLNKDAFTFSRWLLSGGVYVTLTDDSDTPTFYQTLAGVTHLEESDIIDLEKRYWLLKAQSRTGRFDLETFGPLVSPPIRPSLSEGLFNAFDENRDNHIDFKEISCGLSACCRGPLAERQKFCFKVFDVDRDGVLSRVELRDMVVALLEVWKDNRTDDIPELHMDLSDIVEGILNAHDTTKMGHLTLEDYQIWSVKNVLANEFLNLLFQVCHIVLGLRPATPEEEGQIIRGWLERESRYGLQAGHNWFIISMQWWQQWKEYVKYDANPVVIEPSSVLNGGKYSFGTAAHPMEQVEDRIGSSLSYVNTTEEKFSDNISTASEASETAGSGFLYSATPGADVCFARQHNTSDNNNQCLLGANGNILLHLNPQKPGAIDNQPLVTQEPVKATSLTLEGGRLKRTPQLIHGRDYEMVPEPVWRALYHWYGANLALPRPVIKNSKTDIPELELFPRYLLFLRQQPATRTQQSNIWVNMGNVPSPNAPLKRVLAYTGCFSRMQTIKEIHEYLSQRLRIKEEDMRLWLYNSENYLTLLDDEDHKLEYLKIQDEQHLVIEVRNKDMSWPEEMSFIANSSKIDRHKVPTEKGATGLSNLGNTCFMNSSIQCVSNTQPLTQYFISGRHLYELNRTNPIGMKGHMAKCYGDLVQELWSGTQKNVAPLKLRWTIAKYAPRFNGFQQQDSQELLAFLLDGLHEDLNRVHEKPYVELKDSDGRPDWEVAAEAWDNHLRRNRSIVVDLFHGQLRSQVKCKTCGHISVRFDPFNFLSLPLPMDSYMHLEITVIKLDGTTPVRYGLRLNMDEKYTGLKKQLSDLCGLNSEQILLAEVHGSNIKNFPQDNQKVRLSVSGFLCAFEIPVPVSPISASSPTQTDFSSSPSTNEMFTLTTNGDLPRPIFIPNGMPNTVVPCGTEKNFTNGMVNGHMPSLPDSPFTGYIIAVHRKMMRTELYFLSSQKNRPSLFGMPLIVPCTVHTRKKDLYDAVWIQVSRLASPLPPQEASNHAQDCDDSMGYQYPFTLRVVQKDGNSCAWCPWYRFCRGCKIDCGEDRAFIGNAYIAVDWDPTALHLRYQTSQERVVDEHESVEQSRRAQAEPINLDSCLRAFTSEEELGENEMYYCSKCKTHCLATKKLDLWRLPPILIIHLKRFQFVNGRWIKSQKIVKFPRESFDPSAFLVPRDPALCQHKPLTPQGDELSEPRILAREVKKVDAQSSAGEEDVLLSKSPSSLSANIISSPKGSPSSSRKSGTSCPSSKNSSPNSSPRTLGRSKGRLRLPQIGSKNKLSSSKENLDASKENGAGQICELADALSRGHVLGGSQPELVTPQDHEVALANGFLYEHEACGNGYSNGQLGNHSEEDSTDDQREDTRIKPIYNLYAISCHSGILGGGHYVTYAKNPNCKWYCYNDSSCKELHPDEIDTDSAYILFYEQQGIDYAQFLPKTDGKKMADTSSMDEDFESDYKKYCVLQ
UniProt P09958: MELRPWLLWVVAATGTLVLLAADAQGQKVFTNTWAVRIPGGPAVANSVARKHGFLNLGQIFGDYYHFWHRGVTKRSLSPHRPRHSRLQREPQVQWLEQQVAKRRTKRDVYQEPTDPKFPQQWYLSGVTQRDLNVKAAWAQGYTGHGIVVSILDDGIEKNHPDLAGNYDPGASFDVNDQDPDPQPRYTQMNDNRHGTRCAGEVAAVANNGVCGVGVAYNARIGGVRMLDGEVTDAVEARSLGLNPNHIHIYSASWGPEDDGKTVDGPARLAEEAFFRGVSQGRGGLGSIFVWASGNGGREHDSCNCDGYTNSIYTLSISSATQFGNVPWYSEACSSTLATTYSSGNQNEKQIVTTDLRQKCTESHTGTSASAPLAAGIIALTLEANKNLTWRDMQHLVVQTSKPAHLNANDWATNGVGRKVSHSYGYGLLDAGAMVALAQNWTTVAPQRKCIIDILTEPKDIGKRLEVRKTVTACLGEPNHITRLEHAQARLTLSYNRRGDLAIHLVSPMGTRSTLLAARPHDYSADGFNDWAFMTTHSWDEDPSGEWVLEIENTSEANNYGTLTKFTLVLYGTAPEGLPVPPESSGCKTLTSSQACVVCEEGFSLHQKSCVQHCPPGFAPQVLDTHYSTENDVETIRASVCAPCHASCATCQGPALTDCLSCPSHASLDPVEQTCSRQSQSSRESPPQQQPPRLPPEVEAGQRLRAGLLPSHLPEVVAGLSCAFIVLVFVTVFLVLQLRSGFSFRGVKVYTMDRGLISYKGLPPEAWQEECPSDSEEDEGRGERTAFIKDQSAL

| Molecule | binding [1] | binding [2] | binding [3] | binding [4] |
| --- | --- | --- | --- | --- |
| MARCHF9-3×HA (enzyme, UniProt Q86YJ5-1 1-346) MLKSRLRMFLNELKLLVLTGGGRPRAEPQPRGGRGGGCGWAPFAGCSTRDGDGDEEEYYGSEPRARGLAGDKEPRAGPLPPPAPPLPPPGALDALSLSSSLDSGLRTPQCRICFQGPEQGELLSPCRCDGSVRCTHQPCLIRWISERGSWSCELCYFKYQVLAISTKNPLQWQAISLTVIEKVQIAAIVLGSLFLVASISWLIWSSLSPSAKWQRQDLLFQICYGMYGFMDVVCIGLIIHEGSSVYRIFKRWQAVNQQWKVLNYDKTKDIGGDAGGGTAGKSGPRNSRTGPTSGATSRPPAAQRMRTLLPQRCGYTILHLLGQLRPPDARSSSHSGREVVMRVTTV |  | binds | no binding |  |
| MARCHF9-HA-VN (enzyme, UniProt Q86YJ5-1 1-346) MLKSRLRMFLNELKLLVLTGGGRPRAEPQPRGGRGGGCGWAPFAGCSTRDGDGDEEEYYGSEPRARGLAGDKEPRAGPLPPPAPPLPPPGALDALSLSSSLDSGLRTPQCRICFQGPEQGELLSPCRCDGSVRCTHQPCLIRWISERGSWSCELCYFKYQVLAISTKNPLQWQAISLTVIEKVQIAAIVLGSLFLVASISWLIWSSLSPSAKWQRQDLLFQICYGMYGFMDVVCIGLIIHEGSSVYRIFKRWQAVNQQWKVLNYDKTKDIGGDAGGGTAGKSGPRNSRTGPTSGATSRPPAAQRMRTLLPQRCGYTILHLLGQLRPPDARSSSHSGREVVMRVTTV |  |  |  | binds |
| 3×HA-MARCHF8 (enzyme, UniProt Q5T0T0 1-291) MSMPLHQISAIPSQDAISARVYRSKTKEKEREEQNEKTLGHFMSHSSNISKAGSPPSASAPAPVSSFSRTSITPSSQDICRICHCEGDDESPLITPCHCTGSLHFVHQACLQQWIKSSDTRCCELCKYEFIMETKLKPLRKWEKLQMTSSERRKIMCSVTFHVIAITCVVWSLYVLIDRTAEEIKQGQATGILEWPFWTKLVVVAIGFTGGLLFMYVQCKVYVQLWKRLKAYNRVIYVQNCPETSKKNIFEKSPLTEPNFENKHGYGICHSDTNSSCCTEPEDTGAEIIHV |  | binds | no binding |  |
| MARCHF8-HA-VN (enzyme, UniProt Q5T0T0 1-291) MSMPLHQISAIPSQDAISARVYRSKTKEKEREEQNEKTLGHFMSHSSNISKAGSPPSASAPAPVSSFSRTSITPSSQDICRICHCEGDDESPLITPCHCTGSLHFVHQACLQQWIKSSDTRCCELCKYEFIMETKLKPLRKWEKLQMTSSERRKIMCSVTFHVIAITCVVWSLYVLIDRTAEEIKQGQATGILEWPFWTKLVVVAIGFTGGLLFMYVQCKVYVQLWKRLKAYNRVIYVQNCPETSKKNIFEKSPLTEPNFENKHGYGICHSDTNSSCCTEPEDTGAEIIHV |  |  |  | binds |
| MARCHF2-HA-VN (enzyme, UniProt Q9P0N8 1-246) MTTGDCCHLPGSLCDCSGSPAFSKVVEATGLGPPQYVAQVTSRDGRLLSTVIRALDTPSDGPFCRICHEGANGECLLSPCGCTGTLGAVHKSCLEKWLSSSNTSYCELCHTEFAVEKRPRPLTEWLKDPGPRTEKRTLCCDMVCFLFITPLAAISGWLCLRGAQDHLRLHSQLEAVGLIALTIALFTIYVLWTLVSFRYHCQLYSEWRKTNQKVRLKIREADSPEGPQHSPLAAGLLKKVAEETPV |  |  |  | binds |
| MARCHF2-3×HA (enzyme, UniProt Q9P0N8 1-246) MTTGDCCHLPGSLCDCSGSPAFSKVVEATGLGPPQYVAQVTSRDGRLLSTVIRALDTPSDGPFCRICHEGANGECLLSPCGCTGTLGAVHKSCLEKWLSSSNTSYCELCHTEFAVEKRPRPLTEWLKDPGPRTEKRTLCCDMVCFLFITPLAAISGWLCLRGAQDHLRLHSQLEAVGLIALTIALFTIYVLWTLVSFRYHCQLYSEWRKTNQKVRLKIREADSPEGPQHSPLAAGLLKKVAEETPV |  | binds | no binding |  |

More lines, now with the values ahead:

| binding [1] | binding [2] | binding [3] | binding [4] | Molecule |
| --- | --- | --- | --- | --- |
| binds |  |  |  | furin ΔCD (FLAG-tagged) (from UniProt P09958) (enzyme) |
| no binding |  |  |  | furin ΔCT (FLAG-tagged) (from UniProt P09958) (domain or fragment) |
| binds |  |  |  | furin ΔP (FLAG-tagged) (from UniProt P09958) (enzyme) |
